Source: PubChem BioAssay AID1347076 (National Center for Advancing Translational Sciences (NCATS), 2019)
The whole screen tested about 400,000 compounds, of which about 13,000 (3.2%) were called active. Inconclusive results, whose numbers are uncertain, are shown with a selection of clear calls. Calls come from the whole dose curve; as a rule, active = well fitted cell-killing curve with a large enough effect; inconclusive = small, poorly fitted or top-dose-only effect, or effect the other way; inactive = flat fitted curve, though single readings scatter. Potencies beside an inconclusive call are fits to weak or partial responses and may not hold up.

test: qHTS assay for MDR1-selective chemotherapeutics: Primary screen using the drug-selected MDR subline cells KB-V1; conditions: KB-V1 MDR cells viability, CellTiter-Glo, 72 h; activity change, negative = cytotoxicity: at 46.1 µM (top of the series); note: nearly all actives have a fitted effect of over 60% in size
Method in brief: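 Readout: CellTiter-Glo luminescence, 10 min after addition. Cells: KB-V1 MDR subline, 72 h at 37 degrees C with compound. Analysis: corrected, normalized data fitted to concentration-effect curves.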
% is set by controls: 0 for no effect and ±100 for the full control effect; potency is the fitted concentration of half-maximal effect.

| SMILES | Potency | activity change, negative = cytotoxicity |
| --- | --- | --- |
| CCc1nc2ccc(C(=O)NCCc3c[nH]c4ccccc34)cn2c1N(C)CCCc1ccccc1 | inconclusive: 29.1 µM [cytotoxic, single point] | – |
| Cc1csc(=Nc2ccccc2)n1CCCN1CCCC1=O | inconclusive: 29.1 µM [cytotoxic, partial curve, poor fit] | – |
| CCOc1ccc(NC(=O)C2CCN(S(C)(=O)=O)CC2)cc1 | inconclusive: 29.1 µM [cytotoxic, single point] | – |
| Cc1cc(SCC(=O)N/N=C/c2ccc(O)c(O)c2)nc2ccccc12 | inconclusive: 29.1 µM [rising, single point] | – |
| CC(=O)Nc1ccc(CCCCc2ccc(NC(C)=O)cc2)cc1 | inactive | – |
| N#Cc1ccc(/C=N/NC(=S)Nc2ccc(S(=O)(=O)N3CCOCC3)cc2)cc1 | inactive | – |
| Cc1sc2nc(CN3CCOCC3)nc(NS(=O)(=O)c3cc(Cl)ccc3Cl)c2c1C | inconclusive: 25.9 µM [cytotoxic, partial curve, poor fit] | – |
| Cc1ccc(S(=O)(=O)CCC(=O)Nc2nc(-c3ccncc3)cs2)cc1 | inconclusive: 16.4 µM [cytotoxic, single point] | – |
| COc1ccc(OCc2nnc(SC(C)C(=O)Nc3nccs3)n2-c2ccccc2)cc1 (centres undefined) | inconclusive: 18.4 µM [cytotoxic, partial curve, poor fit] | – |
| COC(=O)C1=C(C)NC(=O)NC1c1ccc(N2CCC(c3ccccc3)=N2)cc1 (centres undefined) | inconclusive: 18.4 µM [cytotoxic, single point] | – |
| CNc1cc(N2CCCCCC2)ccc1[N+](=O)[O-] | inconclusive: 18.4 µM [cytotoxic, partial curve] | – |
| CN(C)CCCNC(=O)C[C@H]1C[C@H](C(=O)N2CCOCC2)[C@@]2(C)c3[nH]c4cc(-c5ccco5)ccc4c3CCN2C1=O | inactive | – |
| C=CCn1c(SCC(=O)Nc2ccc(OC)cc2)nnc1-c1cnccn1 | inactive | – |
| C(#CCN1CCCC1)CC(c1ccccc1)c1ccccc1 | inconclusive: 13 µM [cytotoxic, partial curve] | – |
| CCOc1ccc(CNC(=O)CCC(=O)N2Cc3ccccc3Oc3ncccc32)cc1 | – | inconclusive: -30.4% [cytotoxic] |
| Cc1nc2ccc(NC(=O)c3ccc(Cl)nc3)cc2s1 | inconclusive: 20.6 µM [cytotoxic, single point] | – |
| Cc1ccc2nc(-c3ccc(NC(=O)C(C)Sc4nncs4)cc3)sc2c1 (centres undefined) | active: 11.6 µM | – |
| Nc1nonc1-n1nnc(C(=O)N/N=C/c2cccnc2)c1-c1cccs1 | inconclusive: 16.4 µM [rising, single point] | – |
| CN(C)c1ccc(C(=S)N2CCN(Cc3ccccc3)CC2)cc1 | inconclusive: 13 µM [cytotoxic, partial curve] | – |
| Cc1ccc(F)c([C@H]2C3C=CCC(c4ccccc4)C3C(=O)N2Cc2ccccc2)c1 (some centres undefined) | inactive | – |
| CC(CCc1ccccc1)NC(=O)c1ccccc1Cl (centres undefined) | inconclusive: 1.16 µM [cytotoxic, full curve, poor fit] | – |
| COc1ccc(NC(=O)C2CCCN(C(=O)c3ccc(Cl)cc3)C2)cc1S(=O)(=O)N(C)C (centres undefined) | inconclusive: 29.1 µM [rising, single point] | – |
| COc1ccc(N2CCN(C(CNC(=O)C(=O)NCC3CCCO3)c3ccco3)CC2)cc1 (centres undefined) | active: 4.11 µM | – |

| SMILES | Potency | activity change, negative = cytotoxicity |
| --- | --- | --- |
| Cc1[nH]n(-c2ccccc2)c(=O)c1Sc1ccc(Cl)cc1 | inactive | – |
| Cc1cccc(NC(=O)Cn2cc(C(=O)C3CC3)c3ccccc32)c1 | inconclusive: 29.1 µM [cytotoxic, single point] | – |
| COc1ccc(N2CC(C(=O)N[C@@H](C)C(=O)NC3CCCCC3)CC2=O)cc1 (some centres undefined) | inconclusive: 29.1 µM [rising, single point] | – |
| O=C(CCCc1nc2ccccc2s1)NCc1ccccc1F | inconclusive: 29.1 µM [cytotoxic, single point] | – |
| COC(=O)c1ccc(C)c(NC(=O)c2ccc(Cn3cc([N+](=O)[O-])cn3)o2)c1 | inconclusive: 18.4 µM [cytotoxic, single point] | – |
| CCC(=O)Nc1cccc(C2=NOC3(C2)C[C@@H](C(N)=O)N(C(=O)CC(c2ccccc2)c2ccccc2)C3)c1 (some centres undefined) | inconclusive: 8.2 µM [rising, partial curve, poor fit] | – |
| O=C(CNc1cccc2ccccc12)N/N=C/C(Br)=C/c1ccccc1 | inconclusive: 23.1 µM [cytotoxic, single point] | – |
| COc1ccccc1CCNC(=O)Cn1ccc2cc(S(=O)(=O)N3CCCCC3)ccc21 | inactive | – |
| CC(C)(C)CC(C)(C)c1ccc(O)c(Cc2ccc(Cl)cc2Cl)c1 | inconclusive: 29.1 µM [cytotoxic, single point] | – |
| S=c1sc2c(Cl)ncnc2n1-c1ccccc1 | inconclusive: 16.4 µM [cytotoxic, single point] | – |
| c1ccc(COC2CCCN(Cc3nc(-c4cnccn4)no3)C2)nc1 (centres undefined) | inconclusive: 1.03 µM [rising, full curve] | – |
| CC1CC1C(=O)Nc1ccc(S(=O)(=O)N2CCCCC2)cc1 (centres undefined) | active: 10.3 µM | – |
| CCN(CCn1cccn1)C(=O)c1cccc(OC2CCN(S(C)(=O)=O)CC2)c1 | inconclusive: 3.26 µM [cytotoxic, partial curve, poor fit] | – |
| COC(=O)CCC(C)C1CCC2C3CCC4CC(O)CCC4(C)C3=CC(=O)C12C (centres undefined) | inactive | – |
| O=C(Cc1ccc(Cl)cc1)NCCS(=O)(=O)N1CCN(c2ccccc2F)CC1 | active: 7.31 µM | – |
| O=C(NNC(=O)c1ccc(Cl)nc1)c1ccc(Br)cc1 | inactive | – |
| COC(=O)c1sccc1NC(=O)Cn1nnc(-c2ccc(C)cc2)n1 | active: 20.6 µM | – |
| O=C1CCN(C(=O)c2cccs2)c2ccccc21 | inactive | – |
| CC(=O)c1ccc2c(c1)C1C=CCC1C(c1ccc(S(=O)(=O)N3CCOCC3)cc1)N2 (centres undefined) | inconclusive: 10.3 µM [cytotoxic, partial curve] | – |
| COc1ccc(NS(=O)(=O)c2ccc(OC)c(OC)c2)cc1OC | active: 20.6 µM | – |
| Cc1ccc2c(c1)P(=O)(O)c1cc(C)ccc1O2 | inactive | – |
| O=C(Nc1ccccc1)C1=C[C@@H](C2CC2)C[C@@H](OCCCCO)O1 | active: 7.31 µM | – |
| O=C(CNC(=O)C1COc2ccccc2O1)N/N=C\c1ccc(Br)cc1 (centres undefined) | inconclusive: 2.91 µM [rising, partial curve, poor fit] | – |

Some values from the results shown.
Under Potency, CC(C)(C)CC(C)(C)c1ccc(O)c(Cc2ccc(Cl)cc2Cl)c1 is entered as inconclusive: 29.1 µM [cytotoxic, single point]
Under Potency, Cc1ccc(F)c([C@H]2C3C=CCC(c4ccccc4)C3C(=O)N2Cc2ccccc2)c1 (some centres undefined) is entered as inactive

(cont.)

| SMILES | Potency | activity change, negative = cytotoxicity |
| --- | --- | --- |
| O=C(Nc1ccc2oc(-c3ccccc3F)nc2c1)c1ccccc1F | inconclusive: 16.4 µM [cytotoxic, single point] | – |
| Cc1n(-c2ccccc2)c2ccc(Cl)cc2[n+]1CCO | inconclusive: 29.1 µM [rising, partial curve, poor fit] | – |
| C/C(=N/NC(=O)CNC(=O)COc1cccc(C)c1)c1ccc(Cl)cc1 | inactive | – |
| CC(C)(C)NC(=O)CSc1nc2ccc(Nc3nc(N4CCOCC4)nc(N4CCOCC4)n3)cc2s1 | inconclusive: 9.2 µM [cytotoxic, partial curve, poor fit] | – |
| CCn1cc(S(=O)(=O)N2CCN(Cc3cccc(Cl)c3)CC2)cn1 | inconclusive: 20.6 µM [cytotoxic, partial curve, poor fit] | – |
| COc1ccc2[nH]c3c(c2c1)CCN1C(=O)C(CC(=O)NC/C=C(\C)CCC=C(C)C)C[C@H](C(=O)N(C(C)C)C(C)C)[C@@]31C (some centres undefined) | inconclusive: 18.4 µM [cytotoxic, single point] | – |
| Cc1c(C(=O)NCc2ccc3c(c2)OCCO3)sc(=O)n1Cc1ccccc1C#N | inconclusive: 6.51 µM [cytotoxic, partial curve] | – |
| CCOc1ccc(NC(=O)Nc2ccon2)cc1 | inconclusive: 20.6 µM [cytotoxic, single point] | – |
| COc1ccc2c(c1OC)C(=O)OC2Nc1nc2ccccc2s1 (centres undefined) | inconclusive: 32.6 µM [rising, partial curve, poor fit] | – |
| CCOC(=O)c1cc2n(c1N)-c1ccccc1C2=O | inconclusive: 8.2 µM [cytotoxic, partial curve, poor fit] | – |
| CC(=O)Nc1ccc(S(=O)(=O)NCc2ccccn2)cc1 | inactive | – |
| Cc1ccc(-c2cc3c(nn2)-c2ccccc2C3=O)cc1 | inconclusive: 9.2 µM [cytotoxic, partial curve] | – |
| CC1CC(=O)c2cn3c(nc2C1)nc1ccccc13 (centres undefined) | inconclusive: 29.1 µM [rising, single point] | – |
| CCC(c1nnnn1CS(=O)(=O)c1ccc(C)cc1)N1CCN(c2nc3ccccc3s2)CC1 (centres undefined) | active: 4.11 µM | – |
| O=c1[nH]c(N2CCc3ccccc32)nc2c1CCCC2 | inconclusive: 16.4 µM [cytotoxic, partial curve] | – |
| Cc1cc(NC(=O)c2ccccc2F)ccc1-c1nc2ccccc2s1 | inactive | – |
| O=C1CC(N(O)c2ccccc2)C(=O)N1c1ccc(Cl)c(Cl)c1 (centres undefined) | inactive | – |
| CCOc1ccc2nc(Cl)c(C3CC(c4ccco4)=NN3S(=O)(=O)c3ccccc3)cc2c1 (centres undefined) | inactive | – |
| Cc1ccc(NC(=O)CNc2ccccc2CN(C)C2CCCCC2)cc1 | inactive | – |
| CCn1c(SCC(=O)NC2CC2)nnc1-c1cccs1 | inconclusive: 29.1 µM [rising, single point] | – |
| O=C(CSc1nnc(-c2ccc(Cl)cc2)n1-c1ccc(Cl)cc1)N/N=C/c1ccco1 | inconclusive: 32.6 µM [cytotoxic, single point] | – |
| CCOCCCNC(=S)Nc1ccc2nc(N3CCCC3)cc(C)c2c1 | active: 7.31 µM | – |
| CC(Sc1nnc(-c2ccccc2Br)n1-c1cccc(C(F)(F)F)c1)C(N)=O (centres undefined) | inconclusive: 20.6 µM [rising, partial curve, poor fit] | – |
